## Library screening results

Sequences of proteins named here, by UniProt entry; tags and fusion partners are left off.
UniProt E9BF75, entry or part of it: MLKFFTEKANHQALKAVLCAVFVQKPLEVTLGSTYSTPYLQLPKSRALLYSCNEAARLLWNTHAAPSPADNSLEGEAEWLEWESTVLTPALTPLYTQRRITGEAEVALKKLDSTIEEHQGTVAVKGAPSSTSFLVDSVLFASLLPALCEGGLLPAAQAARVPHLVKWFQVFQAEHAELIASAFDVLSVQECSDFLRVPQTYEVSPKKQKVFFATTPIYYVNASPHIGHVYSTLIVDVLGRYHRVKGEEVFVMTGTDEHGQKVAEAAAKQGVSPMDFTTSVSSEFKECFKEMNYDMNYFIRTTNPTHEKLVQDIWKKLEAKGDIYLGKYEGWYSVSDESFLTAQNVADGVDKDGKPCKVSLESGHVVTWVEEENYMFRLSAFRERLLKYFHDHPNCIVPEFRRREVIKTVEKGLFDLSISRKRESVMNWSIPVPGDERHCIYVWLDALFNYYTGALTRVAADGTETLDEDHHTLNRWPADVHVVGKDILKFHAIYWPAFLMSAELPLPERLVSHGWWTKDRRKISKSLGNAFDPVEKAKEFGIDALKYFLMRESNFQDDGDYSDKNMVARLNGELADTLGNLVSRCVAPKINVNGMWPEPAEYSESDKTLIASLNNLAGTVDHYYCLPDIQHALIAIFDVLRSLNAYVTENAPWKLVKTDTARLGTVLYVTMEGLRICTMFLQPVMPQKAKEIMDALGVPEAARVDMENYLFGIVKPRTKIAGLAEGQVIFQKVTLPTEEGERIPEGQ

From ChEMBL document CHEMBL3988442, “University of Dundee, Small-Polar-MMV Screening Library” (2021).

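Methionyl-tRNA synthetase (putative), Leishmania donovani (UniProt E9BF75). Primary screen of methionyl-tRNA synthetase; the read-out is not stated. The test concentration is not given. Values are per cent inhibition. Size under these conditions: about 68,000 compounds, about 24 of them at 50% or above in at least one test.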

All values are in %. How 0% and 100% were set is not recorded. Most values in the screen are low, and negative values occur. The compounds are a random part of those screened.

- CCN(Cc1ccoc1)C(=O)NC1CCN(CC=C(C)C)CC1 : 15.25%
- CCCc1nc(C(C)(C)NC(=O)C2CC(=O)N(CCOC)C2)no1 (centres unmarked) : 20.11%
- Cc1cc(-c2cnc(NC3CCCC3)nc2-c2ccco2)on1 : 22.92%
- CC(=O)N(C)c1nc(CN2CCCCC2Cn2cncn2)cs1 (centres unmarked) : 6.073%
- Cc1ccc(NC2CCN(C(=O)c3ccnc(N(C)C)c3)CC2)nn1 : 15.34%
- O=C(CS(=O)(=O)Cc1csc(-c2ccc(F)cc2)n1)NCC1CC1 : 0%
- COCCCN(Cc1ccccn1)S(=O)(=O)N(C)C : -0.6865%
- COc1ccc(F)c(F)c1CN1CC(=O)N(c2ccccc2C)CC1C (centres unmarked) : 10.64%
- CC(C)Sc1ncccc1C(=O)NCc1ccc(CS(C)(=O)=O)cc1 : 9.028%
- Cn1ccc2ccc(C(=O)NC3CCOC(C)(C)C3)cc21 (centres unmarked) : 16.17%
- Cc1ccc(C(CNCC2CC2)N2CCOCC2)s1 (centres unmarked) : 7.619%
- O=C(c1ccncc1)N1CCOC2(COCCN(c3cncnc3)C2)C1 (centres unmarked) : 13.87%
- CCn1nc(CC(C)C)cc1C(=O)N1C[C@H](O)[C@@H](N2CCCCC2)C1 : 15.61%
- CN(C)C(C(=O)N1CCN(CC(F)(F)F)CC1)c1ccccc1F (centres unmarked) : 11.61%
- Cc1ccc(CNCCCNS(C)(=O)=O)c(Br)c1 : 13.77%
- CN1CCC2(CCN(c3ncc(F)cn3)CC2)C1=O : 7.246%
- CCN1CCC2(COCc3cnc(NCC4CC4)nc32)C1 (centres unmarked) : 10.5%
- CC(C)NC(=O)N1CCN(C(=O)N(C)C)CC2(CC(=O)N(C)C2)C1 (centres unmarked) : 4.762%
- COC1CCCN(CCCc2cn[nH]c2)C1 (centres unmarked) : 13.87%
- c1ccc(-n2nnnc2CN2CCCC(Cn3cncn3)C2)cc1 (centres unmarked) : 14.58%
- CC1CN(Cc2noc(C3CC3)n2)CCN1Cc1nccn1C (centres unmarked) : 1.408%
- Cc1cccc(CNc2cc(C3CCCNC3)ccn2)n1 (centres unmarked) : 15.58%
- Cc1cccc(O[C@H]2COCCN(C3CCOCC3)C2)n1 : 6.015%
- Cc1cccc(C(=O)NC(C)CN2CCCC2=O)n1 (centres unmarked) : 15.3%
- COc1ccc(CNC(C)Cn2cccn2)c(OC)c1OC (centres unmarked) : 13.39%
- CC(=O)c1ccc(Nc2nc(N)nc3c2nc(C)n3C)cc1 : -4.218%
- Cc1cc(N2CCC(CO)(CC3CCCCO3)CC2)nc2ccccc12 (centres unmarked) : 12.06%
- CC1(C)CCN(S(=O)(=O)N2CCCC(c3cccc(C(=O)O)c3)C2)CC1 (centres unmarked) : 1.423%
- CCN1CC2(CC1=O)CN(C(=O)NC)CCN(S(C)(=O)=O)C2 (centres unmarked) : 14.49%
- CCn1nc(C)cc1C(=O)OCC1CC(=O)N(Cc2ccccc2)C1 (centres unmarked) : 0.2801%
- CC(C)N1CCC(Cc2cnc(-c3cccc(C(=O)O)c3)cn2)C1 (centres unmarked) : 9.932%
- N[C@H]1CCCN(C(=O)c2cnc(COc3ccccc3)nc2O)C1 : 15.36%
- Cc1nc(-c2ccc(C(=O)O)cc2)cc(C2CCN(C(C)C)C2)n1 (centres unmarked) : 8.741%
- COCC(=O)N1CCC(c2nc3ccc(-c4ccncc4)cn3n2)CC1 : 9.774%
- CC(C)S(=O)(=O)C(C)C(=O)NCc1ccccc1COc1ccccc1 (centres unmarked) : 22.06%
- O=C(CC1CCCC1)NCCn1ccc(-c2ccncc2)n1 : 8.824%
- CC(C)C(=O)N1CCC2(CC1)NC(=O)[C@H]1CN(C(=O)N(C)C)C[C@H]12 : 4.444%
- Cc1cccc2c1ccn2CCC(=O)Nc1c2c(nn1C)CSC2 : 14.48%
- Cc1cc(N2CCCN3CCC[C@H]3C2)n2nc(C)c(C)c2n1 : 8.511%
- Cc1nc(CN2C[C@@H]3CN(C(=O)C4CC4)C[C@@H]3C2=O)cs1 : 11.11%
- Cc1ncnc2c1CCN(S(=O)(=O)C1CC1)CC2 : 14.08%

For reference, 4 entries once more:

Result for COCCCN(Cc1ccccn1)S(=O)(=O)N(C)C was -0.6865%.
Result for CCN(Cc1ccoc1)C(=O)NC1CCN(CC=C(C)C)CC1 was 15.25%.
Result for Cc1cccc(CNc2cc(C3CCCNC3)ccn2)n1 (centres unmarked) was 15.58%.
Result for c1ccc(-n2nnnc2CN2CCCC(Cn3cncn3)C2)cc1 (centres unmarked) was 14.58%.